Results deposited as PubChem BioAssay AID1259307 (Sanger Institute, 2017)
The deposit covers 794 reagents; this is a part drawn at random. 15 of them (1.9%) count as active. 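Calls reflect lethality without any drug; synergy scores did not enter the calls.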 A number with no mark means an inactive call. Not all columns of the deposit are shown. Reagent sequences are not shown. Not stated in the record: the amount of reagent, the time to read-out.

Screen: 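Identify kinases needed for SW620 growth or enhancing BYL719, cetuximab or trametinib effects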 (primary screen)
Cell system: SW620 colorectal cancer cells
Knock-down reagent: siRNA pool against human genes
Treatment: anchor drugs BYL719 at 1 µM, cetuximab at 5 µg/ml or trametinib at 10 nM, each beside a DMSO vehicle arm
Detection: 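Per-well viability versus non-targeting control pool, replicate-averaged, robust z-score from controls; synergy scores for BYL719 1 µM, cetuximab 5 µg/ml, trametinib 10 nM against DMSO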
Reading the numbers: viability robust z-score, no drug: higher = more viable cells
Rule for the call: 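a knock-down counts as lethal alone if its drug-free robust viability z-score is lower than -3, regardless of synergy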
Meaning of the calls: active = essential (lethal alone); inactive = no change alone

Silencing of JAK3 (Janus kinase 3) resulted in: viability robust z-score, no drug 0.736.
After knock-down of CSNK1A1L (casein kinase 1 alpha 1 like), the record shows viability robust z-score, no drug 0.736.
Against MAPK15 (mitogen-activated protein kinase 15), the values are viability robust z-score, no drug -1.36.
ELP1 (elongator acetyltransferase complex subunit 1) showed viability robust z-score, no drug -0.0113.
STK17B (serine/threonine kinase 17b) showed viability robust z-score, no drug 0.153.
Against EIF2AK1 (eukaryotic translation initiation factor 2 alpha kinase 1) the deposit lists viability robust z-score, no drug 0.736.

Taken from above.
Result of CSNK1A1L (casein kinase 1 alpha 1 like) in “viability robust z-score, no drug”: 0.736
For “viability robust z-score, no drug”, ELP1 (elongator acetyltransferase complex subunit 1) is entered as -0.0113

The listing continues.
Depletion of MAPKAPK5 (MAPK activated protein kinase 5) gave: viability robust z-score, no drug 0.387.
Depletion of PGK2 (phosphoglycerate kinase 2) resulted in: viability robust z-score, no drug 0.736.
After knock-down of NTRK1 (neurotrophic receptor tyrosine kinase 1), the screen gave viability robust z-score, no drug -1.38.
ALPK3 (alpha kinase 3) gave viability robust z-score, no drug 0.736.
Against PCK2 (phosphoenolpyruvate carboxykinase 2, mitochondrial) the deposit lists viability robust z-score, no drug 0.733.
CDKN1B (cyclin dependent kinase inhibitor 1B) scored viability robust z-score, no drug 0.439.
